Measured values from article PMC9948308, “DnaK and DnaJ proteins from Hsp70/40 family are involved in Rubisco biosynthesis in Synechocystis sp. PCC6803 and sustain the enzyme assembly in a heterologous system” (BMC Plant Biology, 2023).
No constants are given. Whether binding was seen depends on the method and setting. Binding calls can cover weak binding; strength is not graded here.

Protein sequences, listed by entry. Tags and fused reporters are not part of them. Lines headed by an entry give the natural chain unless they say otherwise; changes in a name come on top.
UniProt P22358: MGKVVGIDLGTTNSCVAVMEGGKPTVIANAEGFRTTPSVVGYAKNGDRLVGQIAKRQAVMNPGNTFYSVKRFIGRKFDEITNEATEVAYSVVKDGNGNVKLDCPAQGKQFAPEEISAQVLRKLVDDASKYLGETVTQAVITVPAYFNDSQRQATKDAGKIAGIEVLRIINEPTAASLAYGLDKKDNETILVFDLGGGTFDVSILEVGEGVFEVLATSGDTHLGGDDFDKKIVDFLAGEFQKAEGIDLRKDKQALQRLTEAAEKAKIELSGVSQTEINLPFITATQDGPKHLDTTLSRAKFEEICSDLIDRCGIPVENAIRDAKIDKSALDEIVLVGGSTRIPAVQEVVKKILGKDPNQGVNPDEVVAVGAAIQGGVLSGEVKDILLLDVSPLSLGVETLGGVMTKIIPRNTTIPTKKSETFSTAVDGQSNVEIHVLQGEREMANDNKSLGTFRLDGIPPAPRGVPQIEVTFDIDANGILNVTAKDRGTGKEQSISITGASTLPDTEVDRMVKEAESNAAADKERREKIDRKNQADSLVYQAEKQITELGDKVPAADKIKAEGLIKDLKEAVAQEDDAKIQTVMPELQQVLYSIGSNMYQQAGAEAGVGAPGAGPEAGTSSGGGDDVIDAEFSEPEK
UniProt P54205: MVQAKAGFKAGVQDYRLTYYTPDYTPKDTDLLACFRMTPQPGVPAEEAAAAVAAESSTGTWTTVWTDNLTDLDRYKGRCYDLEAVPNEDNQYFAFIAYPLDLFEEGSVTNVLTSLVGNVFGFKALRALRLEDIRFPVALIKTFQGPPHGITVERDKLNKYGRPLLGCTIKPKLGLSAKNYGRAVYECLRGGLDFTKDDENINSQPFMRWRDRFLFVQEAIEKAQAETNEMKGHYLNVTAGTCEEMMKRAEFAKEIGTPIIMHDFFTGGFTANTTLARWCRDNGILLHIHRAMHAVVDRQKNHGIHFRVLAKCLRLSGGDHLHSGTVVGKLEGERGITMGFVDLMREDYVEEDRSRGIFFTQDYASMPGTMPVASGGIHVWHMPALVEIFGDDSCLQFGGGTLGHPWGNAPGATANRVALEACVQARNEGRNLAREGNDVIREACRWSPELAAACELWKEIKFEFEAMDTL
UniProt P74157: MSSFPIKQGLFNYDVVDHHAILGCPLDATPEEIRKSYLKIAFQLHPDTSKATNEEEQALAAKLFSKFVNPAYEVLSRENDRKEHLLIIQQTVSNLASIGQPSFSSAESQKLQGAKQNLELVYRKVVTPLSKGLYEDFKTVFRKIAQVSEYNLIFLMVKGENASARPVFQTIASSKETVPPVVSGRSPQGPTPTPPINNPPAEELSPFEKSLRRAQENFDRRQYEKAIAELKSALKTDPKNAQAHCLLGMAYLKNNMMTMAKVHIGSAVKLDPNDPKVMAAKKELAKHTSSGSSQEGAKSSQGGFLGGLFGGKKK

How the values were obtained:
[1] = target: DnaK2 from Synechocystis sp. PCC6803, His-tagged (Synechocystis sp. PCC6803) (UniProt P22358); assay: pull-down; His-tagged DnaK2 or His-tagged DnaJ Sll1384 as bait on nickel resin (cOmplete His-Tag Purification Resin); 50 µg of each protein in 150 µl, 30 min; eluted with 400 mM imidazole; dot blot; both purified
[2] = target: RbcL, endogenous in Synechocystis sp. PCC 6803 (Synechocystis sp. PCC 6803 (endogenous in Synechocystis sp. PCC 6803)) (UniProt P54205); assay: native gel or EMSA; soluble fraction of Synechocystis sp. PCC 6803 (wild type, Δraf1 and Δsll1384 strains); native PAGE, western blots with anti-RbcL, anti-DnaK, anti-DnaJ, anti-Raf1

| binding [1] | binding [2] | Substance |
| --- | --- | --- |
| binds | – | DnaJ Sll1384 without a His-tag (from UniProt P74157) |
| – | binds | DnaJ Sll1384, endogenous in Synechocystis sp. PCC 6803 (from UniProt P74157) |
